Chains of the proteins cited; added tags and fusions are not shown. Lines headed by an entry give the natural chain unless they say otherwise; changes in a name come on top.
UniProt P62745: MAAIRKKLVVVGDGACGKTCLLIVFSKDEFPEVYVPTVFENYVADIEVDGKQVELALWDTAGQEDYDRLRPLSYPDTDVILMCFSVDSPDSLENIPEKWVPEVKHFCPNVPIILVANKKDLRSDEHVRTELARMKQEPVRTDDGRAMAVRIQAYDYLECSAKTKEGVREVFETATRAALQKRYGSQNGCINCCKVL

In article PMC8321701:

Legend:
[1] = biological target: T1, biotinylated CNKSR1 (wild-type) (human) (UniProt Q969H4); assay: AlphaScreen or HTRF; high-throughput screen: biotinylated CNKSR1 (WT, W493A) or RhoB (Q63L) bait with 171 FLAG-GST-tagged human phosphatases (154 full length, 17 catalytic domains); threshold 10 times the signal for CNKSR1-biotin/FLAG-DHFR; wheat cell-free translation products
T1 sequence (chain, biotinylated): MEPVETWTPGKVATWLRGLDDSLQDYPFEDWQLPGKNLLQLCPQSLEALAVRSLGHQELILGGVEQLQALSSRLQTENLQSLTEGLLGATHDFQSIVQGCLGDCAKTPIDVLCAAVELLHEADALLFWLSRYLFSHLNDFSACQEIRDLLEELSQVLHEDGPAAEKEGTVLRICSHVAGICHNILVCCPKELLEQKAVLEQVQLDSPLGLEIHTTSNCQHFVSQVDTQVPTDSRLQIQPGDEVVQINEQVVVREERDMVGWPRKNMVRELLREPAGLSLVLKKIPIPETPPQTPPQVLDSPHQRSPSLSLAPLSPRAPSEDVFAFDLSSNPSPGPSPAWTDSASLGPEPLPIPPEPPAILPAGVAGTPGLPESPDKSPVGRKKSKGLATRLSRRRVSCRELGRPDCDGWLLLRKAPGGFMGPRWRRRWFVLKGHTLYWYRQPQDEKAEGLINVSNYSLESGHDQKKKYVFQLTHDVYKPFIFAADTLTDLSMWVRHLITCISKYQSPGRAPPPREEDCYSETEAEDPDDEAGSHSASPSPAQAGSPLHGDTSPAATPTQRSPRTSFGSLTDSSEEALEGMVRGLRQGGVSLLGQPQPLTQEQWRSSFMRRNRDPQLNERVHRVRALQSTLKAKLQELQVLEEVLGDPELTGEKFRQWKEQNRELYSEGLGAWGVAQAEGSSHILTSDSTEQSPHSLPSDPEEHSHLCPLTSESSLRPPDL

[2] = biological target: purified His-RhoB (Q63L) (human) (UniProt P62745); assay: pull-down; lysates of SKBR-3 cells expressing Myc-CNKSR1 (WT, ΔPH or W493A) in IP buffer (25 mM Tris-HCl pH 7.4, 150 mM NaCl, 1% NP-40, 1 mM EDTA, 5% glycerol) incubated with purified His-tagged RhoB (Q63L) 2 h at 4°C, then TALON resin 1 h at 4°C; Western blot; only the target purified

Row | Substance | binding [1] | binding [2]
1 | FLAG-GST-tagged PTPRJ of the human phosphatase array | binds | –
2 | FLAG-GST-tagged PTPRM of the human phosphatase array | binds | –
3 | FLAG-GST-tagged PTPRR of the human phosphatase array | binds | –
4 | Myc-CNKSR1 (ΔPH) (from UniProt Q969H4) | – | no binding

Results are given in words; binding and its absence hold for the method and conditions named. For some of these results: Binding calls can cover weak binding; strength is not graded here. For some of these results: Binding seen in cells or lysates may run through a third protein.
